According to PubChem BioAssay AID504847 (National Center for Advancing Translational Sciences (NCATS), 2011):
The whole screen tested about 400,000 compounds, of which about 3,700 (0.93%) were called active. Inconclusive means that the source gave no clear call. Such entries were picked first, then a sample of the others. The call rests on the fitted dose curve; in most records, active means well fitted inhibition curve with a large enough effect; inconclusive means small, poorly fitted or top-dose-only effect, or another doubt; inactive means no such curve, though single readings can be large or run the other way. A potency beside an inconclusive call is a rough fit, not a confirmed value.

Sequences of proteins named here, by UniProt entry; tags and fusion partners are left off. A change or cut given only in a name is not applied to a line headed by its entry.
UniProt P11473: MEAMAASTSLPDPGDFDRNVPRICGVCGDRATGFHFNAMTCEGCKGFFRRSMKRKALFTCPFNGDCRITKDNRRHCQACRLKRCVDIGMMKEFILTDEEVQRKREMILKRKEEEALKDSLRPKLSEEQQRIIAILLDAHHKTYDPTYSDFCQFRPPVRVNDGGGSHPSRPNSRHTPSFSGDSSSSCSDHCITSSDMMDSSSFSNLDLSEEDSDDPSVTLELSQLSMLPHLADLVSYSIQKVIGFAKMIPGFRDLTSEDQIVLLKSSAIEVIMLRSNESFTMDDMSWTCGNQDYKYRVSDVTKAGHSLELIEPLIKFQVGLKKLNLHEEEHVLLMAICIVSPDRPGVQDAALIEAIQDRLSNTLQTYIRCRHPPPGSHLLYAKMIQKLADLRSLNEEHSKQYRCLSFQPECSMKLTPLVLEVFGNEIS

target: Vitamin D3 receptor (Homo sapiens) (UniProt P11473); assay: Inhibitors of the vitamin D receptor (VDR): qHTS; settings: VDR-SRC2-3 peptide fluorescence polarization, 2 h; max response, negative = inhibition: hits give low values
How it was run: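 Fluorescence polarization assay measuring small-molecule disruption of VDR binding to the coregulator peptide SRC2-3. Compounds were pin-transferred (23 nl) into the reagent mix and incubated 2 h at room temperature before reading.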
On the % scale 0 is the no-effect control and ±100 the full control effect; potency means the concentration at half of the fitted maximal effect.

| Compound | max response, negative = inhibition | Potency |
| --- | --- | --- |
| CCC(C)(C)n1nnnc1C(c1cc2ccc(OC)cc2[nH]c1=O)N1CCCCC1 (stereo unspecified) | inactive: -25.3% | – |
| COc1ccc(S(=O)(=O)N(C)C[C@H]2Oc3c(NC(=O)C4CC4)cccc3C(=O)N([C@H](C)CO)C[C@@H]2C)cc1 | – | inconclusive: 112 µM [inhibitor, partial curve, poor fit] |
| Cc1nn(-c2ccccn2)c2c1C(=O)C(Br)CC2 (stereo unspecified) | – | active: 17.8 µM |
| CCc1c(O)nc(SCC(=O)Nc2ccc(Br)cc2)n(-c2ccc(C)cc2)c1=O | – | inconclusive: 50.1 µM [inhibitor, partial curve, poor fit] |
| Cc1cc(C)c(-c2cc(NC(=O)COC(=O)c3ccc(NC(=O)CC#N)cc3)n(-c3ccccc3)n2)cc1C | inactive: -8.14% | – |
| Cc1nc(-c2ccccn2)nc(SCC(=O)N2CCOCC2)c1Cl | inactive: -8.4% | – |
| CCOc1cccc(CNc2ccc(O)cc2)c1OCc1ccc(Cl)cc1Cl | – | active: 50.1 µM |
| CCOC(=O)N1C(=O)[C@@](CC)(c2ccccc2)N1C(=O)OCC | – | active: 79.4 µM |
| CCOC(=O)C1=C(O)c2ccccc2C(=O)/C1=C\c1ccc(CC)cc1 | – | active: 3.55 µM |
| COC(=O)CS(=O)(=O)c1nnc([C@H](Cc2ccccc2)NC(=O)OC(C)(C)C)o1 | – | inconclusive: 39.8 µM [inhibitor, partial curve, poor fit] |
| O=C(/C=C/c1cccnc1)c1ccc([N+](=O)[O-])cc1 | – | inconclusive: 56.2 µM [inhibitor, partial curve, poor fit] |
| Cn1c(NNC(=O)C2CCCCC2)cc(=O)n(C)c1=O | – | inconclusive: 28.2 µM [inhibitor, partial curve] |
| COc1ccc2c(CC(=O)OCC(=O)N3CCc4ccccc43)coc2c1 | – | inconclusive: 20 µM [inhibitor, single point] |
| O=C(Oc1ccc(F)cc1)c1nc(SCc2ccccc2F)ncc1Cl | inactive: 9.97% | – |
| Oc1ccc(N=Cc2ccc(O)c(O)c2)cc1 | – | inconclusive: 17.8 µM [inhibitor, full curve, poor fit] |
| O=C(Cc1ccccc1)NC1(O)C(=O)c2ccccc2C1=O | – | active: 35.5 µM |
| CCOC(=O)c1ccc(/[N+]([O-])=C/c2ccccc2)cc1 | – | inconclusive: 56.2 µM [inhibitor, partial curve, poor fit] |
| Cc1nn(-c2ccc(Cl)cn2)c2c1C(=O)CC(C)(C)C2Br (stereo unspecified) | – | inconclusive: 89.1 µM [inhibitor, single point] |
| COc1ccc(CCNS(=O)(=O)c2cc(/C=C/C(=O)O)ccc2C)cc1OC | – | inconclusive: 4.47 µM [inhibitor, full curve] |
| O=C1C(NS(=O)(=O)c2ccccc2)=C(N2CCN(c3ccc(F)cc3)CC2)C(=O)c2ccccc21 | – | inconclusive: 14.1 µM [inhibitor, partial curve, poor fit] |
| O=C(CSc1nnc2n1CCCN2C(=S)Nc1ccc(Cl)cc1)c1ccccc1 | – | inconclusive: 79.4 µM [inhibitor, single point] |
| Cc1nc2ccccc2c2c(N)c3ccccc3n12 | – | inconclusive: 79.4 µM [inhibitor, single point] |

| Compound | max response, negative = inhibition | Potency |
| --- | --- | --- |
| O=C(O)c1ccc(NNC(=S)Nc2cc(C(F)(F)F)ccc2Cl)cc1 | – | active: 22.4 µM |
| CC(C)Nc1oc(-c2cccc3ccccc23)nc1C#N | inactive: -0.301% | – |
| O=c1[nH]c2cc3c(cc2cc1CN(Cc1cccs1)Cc1nnnn1Cc1ccco1)OCCO3 | – | inconclusive: 79.4 µM [inhibitor, partial curve, poor fit] |
| CN(C(=O)CSc1cn(CC(=O)N2CCOCC2)c2ccccc12)c1ccccc1 | – | inconclusive: 28.2 µM [inhibitor, partial curve, poor fit] |
| CCCCn1c2ccc(F)cc2c2nnc(NN)nc21 | – | inconclusive: 100 µM [inhibitor, partial curve, poor fit] |
| O=C1C(O)CC2c3ccccc3CC3(CCCC3)N12 (stereo unspecified) | – | inconclusive: 79.4 µM [inhibitor, partial curve, poor fit] |
| COC(=O)C1=NN(C(=O)c2ccccc2)C(O)(c2ccc([N+](=O)[O-])cc2)C1 (stereo unspecified) | – | inconclusive: 70.8 µM [inhibitor, partial curve, poor fit] |
| N#Cc1ccc(C(c2ccc(C#N)cc2)n2cncn2)cc1 | – | inconclusive: 14.1 µM [inhibitor, partial curve, poor fit] |
| O=c1[nH]c(-c2ccncc2)nc2ccccc12 | – | active: 79.4 µM |
| CCOc1cc(/C=C(\C#N)C(=O)Nc2cccc(C(=O)O)c2)ccc1OCc1ccccc1Cl | – | inconclusive: 79.4 µM [inhibitor, partial curve] |
| CSc1ccc(C(=S)N2CCN(C(c3ccccc3)c3ccccc3)CC2)cc1 | – | inconclusive: 79.4 µM [inhibitor, single point] |
| Cc1ccccc1-c1nnc2c3ccccc3c(C)nn12 | inactive: 15.5% | – |
| Cc1ccc(C(=O)OCC(=O)c2ccc(CC(=O)N3CCOCC3)s2)c(C)c1 | inactive: -7.74% | – |
| CCOC(=O)Cn1c(=O)c2c(nc3n2CCN3c2ccc(CC)cc2)n(C)c1=O | inactive: 8.39% | – |
| CCOC(=O)CNC(=O)CSc1ncnc2c1cnn2-c1ccc(Cl)cc1 | inactive: -7.17% | – |
| Cc1ccc(-n2c(=O)c3cc4c(=O)n(-c5ccc(C)c(C)c5)c(=O)c4c(C(=O)c4ccc(C(=O)O)cc4)c3c2=O)cc1C | – | inconclusive: 89.1 µM [inhibitor, single point] |
| CCOC(=O)/C=C/c1ccc(C(F)(F)F)cc1S(=O)(=O)NC(C)(C)C | – | active: 79.4 µM |
| COc1ccc(-c2ccccc2)cc1NC(=O)c1cccs1 | inactive: 12.7% | – |
| N#C/C(=C\c1coc2ccc(O)cc2c1=O)C(=O)Nc1nc2ccccc2s1 | – | inconclusive: 56.2 µM [inhibitor, partial curve, poor fit] |
| CC(C)[C@H](NC(=O)c1ccccc1)C(=O)OCC(=O)c1ccc(S(=O)(=O)N2CCCCC2)cc1 | inactive: 9.59% | – |
| O=S(=O)(c1ccc(Oc2ncnc3scc(-c4ccccc4)c23)cc1)N1CCOCC1 | inactive: 0.687% | – |
| Cc1ccc(Cn2c(=O)n(CCCC(=O)NCc3ccccc3Cl)c(=O)c3ccccc32)cc1 | – | active: 89.1 µM |

| Compound | max response, negative = inhibition | Potency |
| --- | --- | --- |
| COc1ccc(OC)c(NC(=O)c2c(NCc3cccs3)sc3c2CCCC3)c1 | inactive: -14% | – |
| Cc1cccc(N2CCN(C(=O)CCc3c(C)nc4ncnn4c3C)CC2)c1C | inactive: 5.87% | – |
| COc1ccccc1NC(=O)NCCN1CCN(c2cccc(Cl)c2)CC1 | – | inconclusive: 89.1 µM [inhibitor, partial curve, poor fit] |
| Cc1c(C(=O)NCc2c(F)cc(F)cc2F)oc2ccc(S(=O)(=O)N3CCOCC3)cc12 | – | inconclusive: 79.4 µM [inhibitor, partial curve, poor fit] |
| Cc1ccc(OCC(=O)N(Cc2ccc(C)o2)C2CCS(=O)(=O)C2)cc1 (stereo unspecified) | – | inconclusive: 17.8 µM [inhibitor, partial curve, poor fit] |
| CCCCCc1c2c(cc(O)c1C(=O)O)OC(=O)c1c(cc(OC)cc1C(=O)CCCC)O2 | – | active: 79.4 µM |
| CCCS(=O)(=O)N1CCN(CCN2C(=O)c3cccc4cccc(c34)C2=O)CC1 | – | inconclusive: 100 µM [inhibitor, single point] |
| C=CCn1c(SC(F)F)nc2scc(-c3ccco3)c2c1=O | – | inconclusive: 79.4 µM [inhibitor, single point] |
| Cc1ccc(OCCOC(=O)Nc2ccccc2)cc1 | – | inconclusive: 2.82 µM [inhibitor, full curve, poor fit] |
| CSc1ccc(-c2ccco2)nn1 | inactive: -14.7% | – |
| Cn1c(C(=O)N2CCN(c3ccc([N+](=O)[O-])cc3)CC2)cc2c(=O)[nH]c3ccccc3c21 | inactive: 3.03% | – |
| CC/C=C\C[C@H](O)/C=C/C=C\C/C=C\C/C=C\CCCC(=O)O | inactive: 8.32% | – |
| Cc1nc(S(=O)(=O)NC2CCCCC2)c(C#N)c(C)c1Cl | – | inconclusive: 10 µM [inhibitor, partial curve, poor fit] |
| Cc1nnc(SCC(=O)Nc2ccc([N+](=O)[O-])cc2)n1CC1CCCO1 (stereo unspecified) | inactive: -12.8% | – |
| CCOc1cc(/C=C/C(=O)c2ccc(C)cc2)ccc1OCC(=O)N(C)C | – | inconclusive: 89.1 µM [inhibitor, single point] |
| Cc1ccc(N/N=C(\C#N)C(N)=S)cc1C | – | inconclusive: 56.2 µM [inhibitor, partial curve, poor fit] |
| Cc1ccc2nc(N3C(=O)C(O)=C(C(=O)c4ccco4)C3c3cccc(O)c3)sc2c1 (stereo unspecified) | – | inconclusive: 50.1 µM [inhibitor, partial curve] |
| CCCCn1nnnc1SCC(=O)NNC(=O)c1ccco1 | – | inconclusive: 70.8 µM [inhibitor, single point] |
| CCOc1ccc(-c2c(C(=O)N/N=C/c3ccc(OC(C)C)cc3)nnn2-c2nonc2N)cc1 | – | inconclusive: 89.1 µM [inhibitor, single point] |
| CCCCC1=CC2=C(c3ccco3)C(=O)C(C)(OC(=O)c3ccc(Cl)nc3)C(=O)C2=CO1 (stereo unspecified) | – | inconclusive: 89.1 µM [inhibitor, single point] |
| C[N+]1(C)CCC(OC(=O)C(O)(c2ccccc2)C2CCCC2)C1 (stereo unspecified) | – | inconclusive: 100 µM [inhibitor, single point] |
| CC(=O)c1ccc2noc(-c3ccccc3)c2c1 | – | inconclusive: 89.1 µM [inhibitor, single point] |

A second format for 14 compounds above.
Compound	max response, negative = inhibition	Potency
COc1ccc(OC)c(NC(=O)c2c(NCc3cccs3)sc3c2CCCC3)c1	inactive: -14%	–
Cc1cccc(N2CCN(C(=O)CCc3c(C)nc4ncnn4c3C)CC2)c1C	inactive: 5.87%	–
Cc1c(C(=O)NCc2c(F)cc(F)cc2F)oc2ccc(S(=O)(=O)N3CCOCC3)cc12	–	inconclusive: 79.4 µM [inhibitor, partial curve, poor fit]
Cc1ccc(OCC(=O)N(Cc2ccc(C)o2)C2CCS(=O)(=O)C2)cc1 (stereo unspecified)	–	inconclusive: 17.8 µM [inhibitor, partial curve, poor fit]
CCCS(=O)(=O)N1CCN(CCN2C(=O)c3cccc4cccc(c34)C2=O)CC1	–	inconclusive: 100 µM [inhibitor, single point]
C=CCn1c(SC(F)F)nc2scc(-c3ccco3)c2c1=O	–	inconclusive: 79.4 µM [inhibitor, single point]
CSc1ccc(-c2ccco2)nn1	inactive: -14.7%	–
Cn1c(C(=O)N2CCN(c3ccc([N+](=O)[O-])cc3)CC2)cc2c(=O)[nH]c3ccccc3c21	inactive: 3.03%	–
Cc1nc(S(=O)(=O)NC2CCCCC2)c(C#N)c(C)c1Cl	–	inconclusive: 10 µM [inhibitor, partial curve, poor fit]
Cc1ccc(N/N=C(\C#N)C(N)=S)cc1C	–	inconclusive: 56.2 µM [inhibitor, partial curve, poor fit]
CCCCn1nnnc1SCC(=O)NNC(=O)c1ccco1	–	inconclusive: 70.8 µM [inhibitor, single point]
CCOc1ccc(-c2c(C(=O)N/N=C/c3ccc(OC(C)C)cc3)nnn2-c2nonc2N)cc1	–	inconclusive: 89.1 µM [inhibitor, single point]
C[N+]1(C)CCC(OC(=O)C(O)(c2ccccc2)C2CCCC2)C1 (stereo unspecified)	–	inconclusive: 100 µM [inhibitor, single point]
CC(=O)c1ccc2noc(-c3ccccc3)c2c1	–	inconclusive: 89.1 µM [inhibitor, single point]
